Measurements as given in patent publication US20260272871A1, “USE OF RETINOIC ACID RECEPTOR ACTIVATOR AND COMPOSITION THEREOF IN REGENERATION AND REPAIR OF MAMMALS” (INSTITUTE OF ZOOLOGY, CHINESE ACADEMY OF SCIENCES, priority 2022, published 2026).
At least one compound was matched to its structure with a doubt left.

Tested on: 2 mm diameter mouse ear hole
Test: 2 mm ear hole trauma mouse model (ear hole closure)
Format: in vivo, C57BL/6 mice
Settings: 10-20 mg/kg, measured 21 days after damage, vs DMSO and CHX; FIG. 3

SMILES: O=c1c2ccccc2[se]n1-c1ccccc1 [Ebselen]
- healing of 2 mm ear holes by inhibitors of ferroptosis and autophagy: Neither inhibitors of ferroptosis nor autophagy could promote the healing of the ear hole like CHX
